# Library screen at single concentrations

Amino acid sequences for entries named in this document (tags omitted). Residues count along the entry.
UniProt Q4DA54, 1-478: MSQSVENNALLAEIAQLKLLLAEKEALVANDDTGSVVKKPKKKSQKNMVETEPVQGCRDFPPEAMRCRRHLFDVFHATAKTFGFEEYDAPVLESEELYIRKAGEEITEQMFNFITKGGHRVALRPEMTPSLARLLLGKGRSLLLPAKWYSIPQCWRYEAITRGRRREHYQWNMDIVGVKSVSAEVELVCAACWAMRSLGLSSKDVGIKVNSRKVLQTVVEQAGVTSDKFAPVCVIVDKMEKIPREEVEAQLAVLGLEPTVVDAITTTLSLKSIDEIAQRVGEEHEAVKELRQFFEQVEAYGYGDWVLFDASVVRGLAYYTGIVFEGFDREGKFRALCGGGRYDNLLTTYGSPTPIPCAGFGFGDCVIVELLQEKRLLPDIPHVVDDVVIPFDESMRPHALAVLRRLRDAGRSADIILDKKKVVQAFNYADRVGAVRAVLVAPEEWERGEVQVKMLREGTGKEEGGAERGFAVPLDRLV
UniProt P9WFT3, whole entry: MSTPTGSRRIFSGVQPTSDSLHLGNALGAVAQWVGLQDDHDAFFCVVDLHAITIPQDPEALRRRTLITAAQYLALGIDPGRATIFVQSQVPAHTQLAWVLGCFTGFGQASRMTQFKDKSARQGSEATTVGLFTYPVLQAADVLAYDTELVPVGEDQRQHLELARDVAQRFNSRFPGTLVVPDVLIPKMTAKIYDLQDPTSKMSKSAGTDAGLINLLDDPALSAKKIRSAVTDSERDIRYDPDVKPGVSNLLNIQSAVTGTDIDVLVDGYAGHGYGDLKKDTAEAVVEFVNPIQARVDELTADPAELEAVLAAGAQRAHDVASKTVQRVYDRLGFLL
UniProt I6X8D2, whole entry: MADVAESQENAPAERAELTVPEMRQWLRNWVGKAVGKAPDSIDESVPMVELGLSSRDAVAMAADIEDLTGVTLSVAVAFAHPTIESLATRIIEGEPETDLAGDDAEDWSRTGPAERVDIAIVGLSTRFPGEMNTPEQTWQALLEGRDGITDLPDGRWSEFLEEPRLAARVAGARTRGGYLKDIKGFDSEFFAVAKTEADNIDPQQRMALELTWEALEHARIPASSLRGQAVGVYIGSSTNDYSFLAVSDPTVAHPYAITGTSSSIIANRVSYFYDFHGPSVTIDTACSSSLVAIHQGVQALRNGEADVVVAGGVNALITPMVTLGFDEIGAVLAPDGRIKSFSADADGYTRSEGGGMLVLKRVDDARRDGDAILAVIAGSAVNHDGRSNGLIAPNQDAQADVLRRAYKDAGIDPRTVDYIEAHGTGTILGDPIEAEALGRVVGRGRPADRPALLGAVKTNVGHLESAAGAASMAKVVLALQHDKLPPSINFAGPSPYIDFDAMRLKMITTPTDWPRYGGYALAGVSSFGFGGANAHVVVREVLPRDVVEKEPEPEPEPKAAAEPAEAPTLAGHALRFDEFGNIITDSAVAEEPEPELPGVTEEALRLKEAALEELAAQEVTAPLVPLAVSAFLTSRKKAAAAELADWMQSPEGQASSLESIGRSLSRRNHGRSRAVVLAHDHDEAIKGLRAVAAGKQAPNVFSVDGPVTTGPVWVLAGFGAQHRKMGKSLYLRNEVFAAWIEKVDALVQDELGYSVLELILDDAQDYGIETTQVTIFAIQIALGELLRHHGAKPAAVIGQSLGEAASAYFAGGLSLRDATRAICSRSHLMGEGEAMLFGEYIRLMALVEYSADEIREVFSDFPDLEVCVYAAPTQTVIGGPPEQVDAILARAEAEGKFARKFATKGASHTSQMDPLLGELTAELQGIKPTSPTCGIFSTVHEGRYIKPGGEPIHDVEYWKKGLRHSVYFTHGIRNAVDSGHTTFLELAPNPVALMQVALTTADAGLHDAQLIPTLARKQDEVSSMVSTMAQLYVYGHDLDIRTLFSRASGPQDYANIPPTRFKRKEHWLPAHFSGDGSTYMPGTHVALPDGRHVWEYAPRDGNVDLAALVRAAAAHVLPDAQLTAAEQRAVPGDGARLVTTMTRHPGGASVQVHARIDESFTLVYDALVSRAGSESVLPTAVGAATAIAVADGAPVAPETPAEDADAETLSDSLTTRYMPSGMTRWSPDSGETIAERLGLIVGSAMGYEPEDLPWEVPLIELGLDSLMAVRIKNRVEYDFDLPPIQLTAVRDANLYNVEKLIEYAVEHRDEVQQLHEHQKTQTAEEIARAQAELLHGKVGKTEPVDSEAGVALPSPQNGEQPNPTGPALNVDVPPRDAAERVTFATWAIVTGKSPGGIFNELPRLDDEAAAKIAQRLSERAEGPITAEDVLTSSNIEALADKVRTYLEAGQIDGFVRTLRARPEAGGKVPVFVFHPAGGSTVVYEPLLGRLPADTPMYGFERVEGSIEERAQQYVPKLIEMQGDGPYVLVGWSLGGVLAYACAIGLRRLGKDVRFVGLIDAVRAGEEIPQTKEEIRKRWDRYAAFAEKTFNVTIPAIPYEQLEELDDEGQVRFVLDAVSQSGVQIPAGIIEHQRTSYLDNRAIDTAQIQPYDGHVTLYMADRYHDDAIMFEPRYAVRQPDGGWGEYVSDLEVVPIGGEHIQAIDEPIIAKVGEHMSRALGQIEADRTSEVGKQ
UniProt Q8IDJ8, 1-583: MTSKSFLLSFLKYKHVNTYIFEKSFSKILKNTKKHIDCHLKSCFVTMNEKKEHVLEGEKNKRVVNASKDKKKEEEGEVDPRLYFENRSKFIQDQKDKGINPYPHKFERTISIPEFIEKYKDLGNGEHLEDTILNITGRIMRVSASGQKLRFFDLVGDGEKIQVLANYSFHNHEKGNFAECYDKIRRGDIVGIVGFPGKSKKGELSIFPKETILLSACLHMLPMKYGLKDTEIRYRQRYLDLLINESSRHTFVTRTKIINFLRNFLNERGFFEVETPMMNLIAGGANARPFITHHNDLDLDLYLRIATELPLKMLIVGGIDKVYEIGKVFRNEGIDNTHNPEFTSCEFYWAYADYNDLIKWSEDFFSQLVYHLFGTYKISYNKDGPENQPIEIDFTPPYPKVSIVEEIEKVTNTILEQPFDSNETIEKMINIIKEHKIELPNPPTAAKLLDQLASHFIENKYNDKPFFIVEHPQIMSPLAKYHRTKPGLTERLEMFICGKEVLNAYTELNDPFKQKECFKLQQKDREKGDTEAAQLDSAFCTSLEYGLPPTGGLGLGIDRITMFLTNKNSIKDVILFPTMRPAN

TcHisRS: 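Histidine-tRNA ligase, Trypanosoma cruzi CL Brener (UniProt Q4DA54). Enzyme assay of histidyl-tRNA synthetase; the read-out is not stated. Tested at 30 µM. Direction is inferred from retests: higher values go with stronger inhibition. Of about 69,000 compounds tested this way, about 31 (0.045%) reached 50% or more in at least one test.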
MtTrpRS: 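Enzyme assay of tryptophanyl-tRNA synthetase; the read-out is not stated. Target: Tryptophan-tRNA ligase, Mycobacterium tuberculosis (UniProt P9WFT3). Tested at 10 µM. Higher most likely means stronger inhibition; the record gives no direction and few retests gave an IC50. Of about 65,000 compounds tested this way, about 64 (0.098%) reached 50% or more in at least one test.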
Pks13 thioesterase: 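Polyketide synthase Pks13, Mycobacterium tuberculosis (UniProt I6X8D2). Enzyme assay of the thioesterase domain of polyketide synthase 13; the read-out is not stated. Concentration: 30 µM. Higher reads as stronger inhibition (inferred from which compounds were picked for retests). Size under these conditions: about 67,000 compounds, about 300 of them at 50% or above in at least one test.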
PfKRS1: 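Enzyme assay of the cytosolic lysyl-tRNA synthetase in 384-well plates, read by luminescence. Target: Lysine-tRNA ligase, Plasmodium falciparum 3D7 (UniProt Q8IDJ8). Tested at 30 µM. Higher reads as stronger inhibition, judged from the few compounds that gave an IC50. About 69,000 compounds were tested under these conditions; 0.071% (about 49) showed 50% or more at least once.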
Toxoplasma: 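Assay of Toxoplasma gondii numbers, read through their beta-galactosidase reporter with a colour substrate. Tested at 10 µM. The record gives no direction; the compounds picked for IC50 retests had high values, so higher reads as fewer parasites. About 67,000 compounds were tested under these conditions; 0.38% (about 260) showed 50% or more at least once.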

The filed quantity is “Percent Effect” (%).
The record does not define 0% and 100%; most values in the screen are far below 50% and negative numbers occur (in some assays of this library far below -100).
Compounds were drawn at random from those tested, without regard to their results.
A dash means the value is not listed here; it may have been measured.

* CCn1nc(C)c2ncnc(NCCN3CCOCC3)c21 : TcHisRS: 6.087%; MtTrpRS: 4.793%; Pks13 thioesterase: 4.614%; PfKRS1: 4.15%; Toxoplasma: -24.85%
* O=C(c1ccc(NCc2cccc(F)c2)cc1)N1CCCC1 : TcHisRS: 2.762%; MtTrpRS: -30.44%; Pks13 thioesterase: -26.29%; PfKRS1: -1.87%; Toxoplasma: 5.202%
* COc1ncccc1CNC(=O)NC1CCOc2ccccc21 (centres undefined) : TcHisRS: -63.22%; MtTrpRS: 0.6803%; Pks13 thioesterase: -25.42%; PfKRS1: -2.616%; Toxoplasma: 5.385%
* Cc1ccc(C(=O)NCCn2nc(-n3cncn3)ccc2=O)c(C)c1 : TcHisRS: 8%; MtTrpRS: 5.756%; Pks13 thioesterase: -4.147%; PfKRS1: 0.0584%; Toxoplasma: 0.1483%
* [H][C@]12C[C@H](C(=O)NCC3CC3)N(C)[C@@]1([H])CN(c1ncccn1)C2 : Toxoplasma: -0.9798%
* Cc1cc(C(=O)NCc2ccnc(N3CCOCC3)c2)c(C)s1 : TcHisRS: 4.706%; MtTrpRS: -4.888%; Pks13 thioesterase: -11.97%; PfKRS1: 0.507%; Toxoplasma: 4.028%
* CN(Cc1cncnc1)[C@@H]1CN(C(=O)c2ccco2)[C@@H]2CCCO[C@H]12 : TcHisRS: 8.466%; Pks13 thioesterase: -31.63%; PfKRS1: 1.832%
* OC[C@@H]1CCCN1Cc1cn(C2CCN(C3CCCC3)CC2)nn1 : TcHisRS: 9.524%; MtTrpRS: -2.381%; Pks13 thioesterase: -2.812%; PfKRS1: -0.5973%; Toxoplasma: 11.63%
* CC(C)c1ncncc1C(=O)NCCN1CCCC1 : TcHisRS: 0.8772%; MtTrpRS: 4.158%; Pks13 thioesterase: -27.16%; PfKRS1: 4.747%; Toxoplasma: 19.15%
* CC1c2ncc(CNC(=O)C3CC3)n2CCN1Cc1ccncc1 (centres undefined) : TcHisRS: 8.571%; MtTrpRS: 0.08865%; Pks13 thioesterase: -2.288%; PfKRS1: -3.255%
* Cc1ccc(C(=O)N(C)CCNS(C)(=O)=O)cc1Br : TcHisRS: 5.747%; MtTrpRS: -10.29%; Pks13 thioesterase: -23.81%; PfKRS1: 4.098%; Toxoplasma: -7.542%
* O=C(CO)N1CCC(F)(F)C2(CCN(c3ccccc3)C2)C1 (centres undefined) : TcHisRS: 2.674%; MtTrpRS: 11.64%; Pks13 thioesterase: -35.61%; PfKRS1: 0.06295%
* Cl.O=C(O)C1(Cc2cccc(-c3cccs3)c2)CCCNC1 (centres undefined) : Toxoplasma: 3.093%
* CN(C)C(=O)NCc1nnn2c1CN(CC1CCOCC1)CCC2.O=C(O)C(F)(F)F : Toxoplasma: -7.718%
* CNS(=O)(=O)c1ccc(CNC(=O)c2c(C)oc(C)c2C)cc1 : TcHisRS: 7.123%; MtTrpRS: -0.05679%; Pks13 thioesterase: -17.92%; PfKRS1: -0.201%; Toxoplasma: 15.59%
* CNc1cncc(C2CCCN2Cc2ccccc2OCC(=O)O)n1 (centres undefined) : TcHisRS: 7.027%; MtTrpRS: 4.766%; Pks13 thioesterase: -1.054%; PfKRS1: 3.445%; Toxoplasma: 3.139%
* CCC(=O)N1CCCCC1c1nc(N(C)C)ncc1-c1cc(C)no1 (centres undefined) : TcHisRS: 3.448%; MtTrpRS: 3.385%; Pks13 thioesterase: 6.523%; PfKRS1: 0.1993%; Toxoplasma: -6.947%
* CN1CCN(Cc2c[nH]cn2)CC12CCC(=O)N(CC1CC1)CC2 (centres undefined) : TcHisRS: 5.102%; MtTrpRS: -3.771%; Pks13 thioesterase: -11.35%; PfKRS1: 2.407%; Toxoplasma: 14.21%
* Cc1cc(C(=O)N(CC(=O)O)CC(C)C)ccc1F : TcHisRS: 3.96%; MtTrpRS: -7.878%; Pks13 thioesterase: -2.21%; PfKRS1: 0.3623%
* CC(CNC(=O)c1cc(-n2cccn2)ccn1)Cn1ccnc1 (centres undefined) : TcHisRS: 4.459%; MtTrpRS: -3.935%; PfKRS1: -2.093%; Toxoplasma: -14.02%
* CN(C)c1cc(C(=O)NCc2cccnc2-n2cncn2)ccn1 : TcHisRS: 0%; MtTrpRS: 4.248%; Pks13 thioesterase: 5.928%; PfKRS1: 8.401%; Toxoplasma: -14.82%
* [H][C@]12CC[C@]([H])(CN(CC(=O)N(C)C)C1)N(Cc1c(Cl)cncc1Cl)C2 : Toxoplasma: -1.903%
* [H][C@@]12C[C@@H](c3nnc(C4CC4)o3)O[C@]1([H])CN(C(=O)c1ccc(C)s1)C2 : Toxoplasma: 11.83%

The last 2 entries again:

SMILES	TcHisRS	MtTrpRS	Pks13 thioesterase	PfKRS1	Toxoplasma
[H][C@]12CC[C@]([H])(CN(CC(=O)N(C)C)C1)N(Cc1c(Cl)cncc1Cl)C2	-	-	-	-	-1.903%
[H][C@@]12C[C@@H](c3nnc(C4CC4)o3)O[C@]1([H])CN(C(=O)c1ccc(C)s1)C2	-	-	-	-	11.83%

The values are deposited in ChEMBL (CHEMBL3988442, “University of Dundee, Small-Polar-MMV Screening Library” (2021)).